# The supplement of paper PMC8728848
# The list shows a part of the results.
# What was measured:
# Test in all cases: glycan array binding signal (z-score within array); higher = stronger binding
# Conditions in all cases: glycan notation: IUPAC condensed, linker removed
# Glc(a1-6)Glc(a1-6)Glc = target: Glc(a1-6)Glc(a1-6)Glc
# In short: (§1)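 Arrays were curated from the Consortium for Functional Glycomics database, 3228 in total, and kept only where the protein sequence was available. Binding is expressed as a within-array Z-score. This score was averaged across arrays of the same protein sequence at different concentrations or buffers and across linkers, and negative values can be read as non-binding.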
# Glc(b1-4)Glc = target: Glc(b1-4)Glc
# In short: as §1
# Glc(b1-6)Glc = target: Glc(b1-6)Glc
# In short: as §1
# GlcA(b1-3)Gal = target: GlcA(b1-3)Gal
# In short: as §1
# GlcA(b1-3)GlcNAc = target: GlcA(b1-3)GlcNAc
# In short: as §1
# GlcA(b1-6)Gal = target: GlcA(b1-6)Gal
# In short: as §1
# [1] = target: GlcNAc(a1-3)Gal(b1-4)GlcNAc
# In short: as §1
# [2] = target: GlcNAc(a1-4)Gal(b1-3)GlcNAc
# In short: as §1
# [3] = target: GlcNAc(a1-4)Gal(b1-4)GalNAc
# In short: as §1
# [4] = target: GlcNAc(a1-4)Gal(b1-4)GlcNAc
# In short: as §1
# [5] = target: GlcNAc(a1-4)Gal(b1-4)GlcNAc(b1-3)Gal(b1-4)Glc
# In short: as §1
# [6] = target: GlcNAc(a1-4)Gal(b1-4)GlcNAc(b1-3)Gal(b1-4)GlcNAc
# In short: as §1
# [7] = target: GlcNAc(a1-4)Gal(b1-4)GlcNAc(b1-3)Gal(b1-4)GlcNAc(b1-3)Gal(b1-4)GlcNAc
# In short: as §1
# [8] = target: GlcNAc(a1-4)Gal(b1-4)GlcNAc(b1-3)Gal(b1-4)[Fuc(a1-3)]GlcNAc(b1-3)Gal(b1-4)[Fuc(a1-3)]GlcNAc
# In short: as §1
# [9] = target: GlcNAc(a1-6)Gal(b1-4)GlcNAc
# In short: as §1
# [10] = target: GlcNAc(b1-2)Gal(b1-3)GalNAc
# In short: as §1
# [11] = target: GlcNAc(b1-2)Man(a1-3)[GlcNAc(b1-2)Man(a1-6)]Man(b1-4)GlcNAc(b1-4)GlcNAc
# In short: as §1
# [12] = target: GlcNAc(b1-2)Man(a1-3)[GlcNAc(b1-2)Man(a1-6)]Man(b1-4)GlcNAc(b1-4)[Fuc(a1-6)]GlcNAc
# In short: as §1
# GlcNAc(b1-3)Gal = target: GlcNAc(b1-3)Gal
# In short: as §1
# [13] = target: GlcNAc(b1-3)Gal(b1-3)GalNAc
# In short: as §1
# GlcNAc(b1-3)Gal(b1-4)Glc = target: GlcNAc(b1-3)Gal(b1-4)Glc
# In short: as §1
# [14] = target: GlcNAc(b1-3)Gal(b1-4)GlcNAc
# In short: as §1
# [15] = target: GlcNAc(b1-3)Gal(b1-4)GlcNAc(b1-3)Gal(b1-4)GlcNAc
# In short: as §1
# GlcNAc(b1-3)GalNAc = target: GlcNAc(b1-3)GalNAc
# In short: as §1
# GlcNAc(b1-3)Man = target: GlcNAc(b1-3)Man
# In short: as §1
# [16] = target: GlcNAc(b1-3)[GlcNAc(b1-4)][GlcNAc(b1-6)]GlcNAc
# In short: as §1
# [17] = target: GlcNAc(b1-3)[GlcNAc(b1-6)]Gal(b1-4)GlcNAc
# In short: as §1
# [18] = target: GlcNAc(b1-3)[GlcNAc(b1-6)]GalNAc
# In short: as §1
# [19] = target: GlcNAc(b1-4)Gal(b1-4)GlcNAc
# In short: as §1
# GlcNAc(b1-4)GlcNAc = target: GlcNAc(b1-4)GlcNAc
# In short: as §1
# [20] = target: GlcNAc(b1-4)GlcNAc(b1-4)GlcNAc
# In short: as §1
# [21] = target: GlcNAc(b1-4)GlcNAc(b1-4)GlcNAc(b1-4)GlcNAc(b1-4)GlcNAc
# In short: as §1
# [22] = target: GlcNAc(b1-4)GlcNAc(b1-4)GlcNAc(b1-4)GlcNAc(b1-4)GlcNAc(b1-4)GlcNAc
# In short: as §1
# [23] = target: GlcNAc(b1-4)[GlcNAc(b1-6)]GalNAc
# In short: as §1
# [24] = target: GlcNAc(b1-6)Gal(b1-4)GlcNAc
# In short: as §1
# GlcNAc(b1-6)GalNAc = target: GlcNAc(b1-6)GalNAc
# In short: as §1
binder,measurement,setting,value
"Adiponectin (Rattus norvegicus), Q8K3R4 (protein) MLLLQALLFLLILPSHEGITATEGPGALVPPPKETCAGWMAGIPGYPGHNGIPGRDGRDGTPGEKGEKGDAGVLGPKGDPGDAGMTGAEGPRGFPGTPGRKGEPGEAAYMYHSAFSVGLETRVTVPNVPIRFTKIFYNQQNHYDGSTGKFHCNIPGLYYFSYHITVYMKDVKVSLFKKDKAVLFTYDQYQEKNVDQASGSMLLHLEVGDQVWLQVYGEGDNNGLYADNVNDSTFTGFLLYHDTN",glycan array binding signal (z-score),Glc(a1-6)Glc(a1-6)Glc,-1.2
same,glycan array binding signal (z-score),Glc(b1-4)Glc,-0.947
same,glycan array binding signal (z-score),Glc(b1-6)Glc,-0.479
same,glycan array binding signal (z-score),GlcA(b1-3)Gal,0.328
same,glycan array binding signal (z-score),GlcA(b1-3)GlcNAc,-0.577
same,glycan array binding signal (z-score),GlcA(b1-6)Gal,-0.389
same,glycan array binding signal (z-score),[1],-0.969
same,glycan array binding signal (z-score),[2],-0.476
same,glycan array binding signal (z-score),[3],-0.534
same,glycan array binding signal (z-score),[4],-0.064
same,glycan array binding signal (z-score),[5],-0.988
same,glycan array binding signal (z-score),[6],-1.28
same,glycan array binding signal (z-score),[7],-0.58
same,glycan array binding signal (z-score),[8],-1.1
same,glycan array binding signal (z-score),[9],-0.43
same,glycan array binding signal (z-score),[10],-0.35
same,glycan array binding signal (z-score),[11],1.15
same,glycan array binding signal (z-score),[12],-0.628
same,glycan array binding signal (z-score),GlcNAc(b1-3)Gal,-1.05
same,glycan array binding signal (z-score),[13],0.75
same,glycan array binding signal (z-score),GlcNAc(b1-3)Gal(b1-4)Glc,0.226
same,glycan array binding signal (z-score),[14],-0.409
same,glycan array binding signal (z-score),[15],0.342
same,glycan array binding signal (z-score),GlcNAc(b1-3)GalNAc,-0.902
same,glycan array binding signal (z-score),GlcNAc(b1-3)Man,0.039
same,glycan array binding signal (z-score),[16],-0.82
same,glycan array binding signal (z-score),[17],-0.643
same,glycan array binding signal (z-score),[18],-0.505
same,glycan array binding signal (z-score),[19],-0.325
same,glycan array binding signal (z-score),GlcNAc(b1-4)GlcNAc,0.577
same,glycan array binding signal (z-score),[20],4.87
same,glycan array binding signal (z-score),[21],0.358
same,glycan array binding signal (z-score),[22],-1
same,glycan array binding signal (z-score),[23],-0.632
same,glycan array binding signal (z-score),[24],-0.362
same,glycan array binding signal (z-score),GlcNAc(b1-6)GalNAc,-0.414

# Two records picked at random from those above, as already listed:
binder,measurement,setting,value
"Adiponectin (Rattus norvegicus), Q8K3R4 (protein) MLLLQALLFLLILPSHEGITATEGPGALVPPPKETCAGWMAGIPGYPGHNGIPGRDGRDGTPGEKGEKGDAGVLGPKGDPGDAGMTGAEGPRGFPGTPGRKGEPGEAAYMYHSAFSVGLETRVTVPNVPIRFTKIFYNQQNHYDGSTGKFHCNIPGLYYFSYHITVYMKDVKVSLFKKDKAVLFTYDQYQEKNVDQASGSMLLHLEVGDQVWLQVYGEGDNNGLYADNVNDSTFTGFLLYHDTN",glycan array binding signal (z-score),GlcNAc(b1-6)GalNAc,-0.414
same,glycan array binding signal (z-score),GlcNAc(b1-3)GalNAc,-0.902
